Patent publication US8809052B2, “Methods of generating mature oligodendrocytes” (Yeda Research and Development Co. Ltd., priority 2006, dated 2014)
For at least one compound, name, drawing or mass did not settle the structure.

Tested on: human ES cells
Assay: RT-PCR gene expression at the different culture steps
Assay type: cell-based
Experimental: RT-PCR—total RNA was isolated from cultures at different culture steps using Tri-Reagent (Molecular Research Center, Cincinnati, Ohio) and RT-PCR was carried out by standard technology as previously described (Slutsky et al., 2003). Expression was checked for the following genes, as described in table 2 below, including the expression of the control gene G3PDH. Also provided in the table are primer sequences used for each gene. For G3PDH, primers from Clontech (Palo Alto, Calif., catalog #9805-1) were used.

CC1=C(/C=C/C(C)=C/C=C/C(C)=C/C(=O)O)C(C)(C)CCC1 [retinoic acid, reference compound]
expression of Olig1 and Olig2 (after step R, 10 μM retinoic acid, FIG. 1a lane 1): expressed | expression of several members of the BMP family (after step R, FIG. 1c lane 2): increased or even induced | expression of PDGF-Rα (following RA treatment, FIG. 1a lane 1): high
